Assay results as given in article PMC3887213.
No constants are given. Whether binding was seen depends on the method and setting. A result given as binding can be weak or reduced; the word gives no strength. For some assays here: In cells and extracts the contact can be indirect.

Sequences of proteins named here, by UniProt entry; tags and fusion partners are left off. A change or cut given only in a name is not applied to a line headed by its entry. A line that says so, or that is headed by a name, gives the form on record, which may keep a tag or linker. Residues count along the entry.
UniProt Q5S007: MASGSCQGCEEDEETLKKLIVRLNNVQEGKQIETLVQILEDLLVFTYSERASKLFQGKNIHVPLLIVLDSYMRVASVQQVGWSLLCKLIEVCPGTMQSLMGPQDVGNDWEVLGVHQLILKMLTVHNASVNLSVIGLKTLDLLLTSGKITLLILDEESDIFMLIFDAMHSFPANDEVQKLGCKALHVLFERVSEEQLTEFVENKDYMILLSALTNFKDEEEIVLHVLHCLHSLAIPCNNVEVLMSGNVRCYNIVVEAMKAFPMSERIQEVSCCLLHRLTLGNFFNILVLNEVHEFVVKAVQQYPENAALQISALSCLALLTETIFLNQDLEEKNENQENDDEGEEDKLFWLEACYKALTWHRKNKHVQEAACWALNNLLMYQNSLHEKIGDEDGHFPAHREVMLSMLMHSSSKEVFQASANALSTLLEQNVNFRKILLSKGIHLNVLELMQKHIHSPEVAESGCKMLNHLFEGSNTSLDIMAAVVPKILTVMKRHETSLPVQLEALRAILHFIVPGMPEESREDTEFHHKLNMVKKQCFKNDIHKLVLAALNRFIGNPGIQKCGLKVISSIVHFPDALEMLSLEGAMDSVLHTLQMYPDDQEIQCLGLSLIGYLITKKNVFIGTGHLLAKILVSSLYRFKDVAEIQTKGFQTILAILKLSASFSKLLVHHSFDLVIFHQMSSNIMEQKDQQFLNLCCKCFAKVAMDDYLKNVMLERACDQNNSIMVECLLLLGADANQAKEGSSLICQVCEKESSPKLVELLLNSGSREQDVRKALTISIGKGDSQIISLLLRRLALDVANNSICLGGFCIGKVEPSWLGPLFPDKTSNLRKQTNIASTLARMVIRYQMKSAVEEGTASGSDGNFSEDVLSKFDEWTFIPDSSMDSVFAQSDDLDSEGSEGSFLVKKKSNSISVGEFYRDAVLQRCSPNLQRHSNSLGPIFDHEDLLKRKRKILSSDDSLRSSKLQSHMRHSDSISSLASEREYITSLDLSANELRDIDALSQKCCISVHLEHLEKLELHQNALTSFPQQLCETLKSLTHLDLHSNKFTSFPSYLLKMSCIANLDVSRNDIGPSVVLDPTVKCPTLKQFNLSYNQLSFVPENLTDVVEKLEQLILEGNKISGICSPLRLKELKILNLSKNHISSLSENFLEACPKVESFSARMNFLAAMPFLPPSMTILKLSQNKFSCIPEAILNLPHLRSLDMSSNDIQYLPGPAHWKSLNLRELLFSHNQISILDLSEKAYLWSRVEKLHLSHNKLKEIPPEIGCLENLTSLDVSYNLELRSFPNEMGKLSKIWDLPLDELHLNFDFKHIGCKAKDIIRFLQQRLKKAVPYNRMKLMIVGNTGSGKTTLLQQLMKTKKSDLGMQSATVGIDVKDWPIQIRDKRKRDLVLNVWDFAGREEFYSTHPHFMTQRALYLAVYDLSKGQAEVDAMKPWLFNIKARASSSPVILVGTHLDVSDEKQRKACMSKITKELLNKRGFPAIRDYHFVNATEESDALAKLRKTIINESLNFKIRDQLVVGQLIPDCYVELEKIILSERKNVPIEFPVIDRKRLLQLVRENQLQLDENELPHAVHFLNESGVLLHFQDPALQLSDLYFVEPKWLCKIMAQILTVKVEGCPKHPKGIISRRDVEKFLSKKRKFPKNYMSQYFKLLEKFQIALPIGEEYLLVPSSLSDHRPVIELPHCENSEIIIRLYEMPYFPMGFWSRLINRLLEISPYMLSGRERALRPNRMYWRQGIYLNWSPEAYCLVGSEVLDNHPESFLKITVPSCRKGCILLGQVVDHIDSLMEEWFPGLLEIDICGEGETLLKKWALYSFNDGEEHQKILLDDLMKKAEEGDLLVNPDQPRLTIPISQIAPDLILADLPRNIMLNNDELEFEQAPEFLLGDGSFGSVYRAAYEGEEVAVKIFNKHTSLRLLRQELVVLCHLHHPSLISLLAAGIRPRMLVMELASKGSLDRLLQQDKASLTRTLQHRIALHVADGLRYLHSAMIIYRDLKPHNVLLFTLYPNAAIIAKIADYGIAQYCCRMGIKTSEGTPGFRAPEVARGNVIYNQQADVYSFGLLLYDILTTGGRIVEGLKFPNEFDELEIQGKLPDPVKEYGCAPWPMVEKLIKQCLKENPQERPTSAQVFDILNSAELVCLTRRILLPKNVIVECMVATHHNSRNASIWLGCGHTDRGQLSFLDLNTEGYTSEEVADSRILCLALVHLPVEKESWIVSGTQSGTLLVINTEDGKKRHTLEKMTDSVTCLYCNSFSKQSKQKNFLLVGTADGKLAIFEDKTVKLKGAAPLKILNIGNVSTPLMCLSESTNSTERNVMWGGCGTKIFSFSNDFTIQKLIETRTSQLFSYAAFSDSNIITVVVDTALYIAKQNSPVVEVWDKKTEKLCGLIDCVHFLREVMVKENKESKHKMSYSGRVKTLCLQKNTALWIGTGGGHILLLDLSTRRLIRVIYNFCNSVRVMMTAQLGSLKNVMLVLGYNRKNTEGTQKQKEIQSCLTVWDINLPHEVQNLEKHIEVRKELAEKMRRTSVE
UniProt Q9BQE3: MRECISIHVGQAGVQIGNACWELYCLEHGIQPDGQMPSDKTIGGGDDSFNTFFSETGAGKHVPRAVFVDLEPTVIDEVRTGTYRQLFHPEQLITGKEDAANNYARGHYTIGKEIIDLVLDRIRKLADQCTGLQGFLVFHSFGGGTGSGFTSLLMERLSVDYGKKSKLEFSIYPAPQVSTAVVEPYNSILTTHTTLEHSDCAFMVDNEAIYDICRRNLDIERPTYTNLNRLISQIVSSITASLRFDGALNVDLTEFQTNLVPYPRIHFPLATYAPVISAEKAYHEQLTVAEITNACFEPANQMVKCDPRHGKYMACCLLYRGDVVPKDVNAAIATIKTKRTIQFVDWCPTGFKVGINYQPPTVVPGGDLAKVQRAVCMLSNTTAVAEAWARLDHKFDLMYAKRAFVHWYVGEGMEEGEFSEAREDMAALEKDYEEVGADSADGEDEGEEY
UniProt P68366: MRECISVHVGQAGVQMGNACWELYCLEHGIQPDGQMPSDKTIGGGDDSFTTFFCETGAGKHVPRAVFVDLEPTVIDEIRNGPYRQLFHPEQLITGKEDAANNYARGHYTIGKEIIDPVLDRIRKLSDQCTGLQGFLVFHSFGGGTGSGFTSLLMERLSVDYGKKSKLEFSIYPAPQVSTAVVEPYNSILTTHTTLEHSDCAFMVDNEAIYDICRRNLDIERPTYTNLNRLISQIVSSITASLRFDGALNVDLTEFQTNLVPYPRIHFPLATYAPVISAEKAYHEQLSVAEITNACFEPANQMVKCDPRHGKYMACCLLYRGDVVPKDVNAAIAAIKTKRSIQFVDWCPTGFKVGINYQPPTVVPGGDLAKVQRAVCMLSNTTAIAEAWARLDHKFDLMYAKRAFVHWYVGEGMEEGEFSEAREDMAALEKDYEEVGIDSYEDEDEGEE
TUBB1 C terminus (Phe-317 to the stop codon), GAL4-AD prey (Q9H4B7, residues 317-451): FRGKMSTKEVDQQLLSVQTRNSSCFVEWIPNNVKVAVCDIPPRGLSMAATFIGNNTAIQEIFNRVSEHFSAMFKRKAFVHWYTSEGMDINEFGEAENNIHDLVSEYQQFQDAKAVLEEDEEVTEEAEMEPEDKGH
TUBB1 N371S C terminus, GAL4-AD prey (Q9H4B7, form named): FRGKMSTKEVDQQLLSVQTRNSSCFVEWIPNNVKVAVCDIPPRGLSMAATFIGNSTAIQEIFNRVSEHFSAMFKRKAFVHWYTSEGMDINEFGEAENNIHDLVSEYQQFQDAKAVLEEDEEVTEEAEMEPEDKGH
TUBB1 S362K C terminus, GAL4-AD prey (Q9H4B7, form named): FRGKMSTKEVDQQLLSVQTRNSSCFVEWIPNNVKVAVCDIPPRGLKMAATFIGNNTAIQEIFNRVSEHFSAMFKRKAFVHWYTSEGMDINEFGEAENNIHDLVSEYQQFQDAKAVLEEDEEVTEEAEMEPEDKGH
TUBB2A C terminus (Phe-317 to the stop codon), GAL4-AD prey (Q13885, residues 317-445): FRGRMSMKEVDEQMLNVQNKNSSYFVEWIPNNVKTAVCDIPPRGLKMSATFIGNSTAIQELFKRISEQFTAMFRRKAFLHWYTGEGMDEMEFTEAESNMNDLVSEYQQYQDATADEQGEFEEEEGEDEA
TUBB2A S364A C terminus, GAL4-AD prey (Q13885, form named): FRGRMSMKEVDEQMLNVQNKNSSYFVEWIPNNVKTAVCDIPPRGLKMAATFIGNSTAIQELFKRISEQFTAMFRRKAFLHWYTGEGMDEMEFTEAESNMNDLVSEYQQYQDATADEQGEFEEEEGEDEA
TUBB2B C terminus (Phe-317 to the stop codon), GAL4-AD prey (Q9BVA1, residues 317-445): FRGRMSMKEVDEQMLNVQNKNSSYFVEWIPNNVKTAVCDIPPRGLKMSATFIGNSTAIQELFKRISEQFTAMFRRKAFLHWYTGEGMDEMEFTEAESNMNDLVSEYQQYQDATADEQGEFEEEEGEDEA
TUBB2B S364A C terminus, GAL4-AD prey (Q9BVA1, form named): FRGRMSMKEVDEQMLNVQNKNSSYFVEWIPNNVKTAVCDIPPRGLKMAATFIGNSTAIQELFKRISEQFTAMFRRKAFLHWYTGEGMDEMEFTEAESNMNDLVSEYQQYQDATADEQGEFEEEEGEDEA
TUBB2C C terminus (Phe-317 to the stop codon), GAL4-AD prey (P68371, residues 317-445): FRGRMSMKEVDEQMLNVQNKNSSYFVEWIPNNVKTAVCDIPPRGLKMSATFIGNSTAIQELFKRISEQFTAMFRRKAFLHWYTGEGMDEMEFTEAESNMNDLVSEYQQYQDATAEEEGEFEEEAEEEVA
TUBB2C S364A C terminus, GAL4-AD prey (P68371, form named): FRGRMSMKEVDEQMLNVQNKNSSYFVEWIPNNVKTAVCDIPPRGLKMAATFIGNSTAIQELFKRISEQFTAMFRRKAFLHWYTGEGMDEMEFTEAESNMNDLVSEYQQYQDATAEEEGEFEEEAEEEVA
TUBB3 C terminus (Phe-317 to the stop codon), GAL4-AD prey (Q13509, residues 317-450): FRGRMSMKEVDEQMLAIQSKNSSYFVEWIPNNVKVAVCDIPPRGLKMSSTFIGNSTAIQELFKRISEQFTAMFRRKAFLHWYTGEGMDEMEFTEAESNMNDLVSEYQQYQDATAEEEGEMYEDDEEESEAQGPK
TUBB3 S364A C terminus, GAL4-AD prey (Q13509, form named): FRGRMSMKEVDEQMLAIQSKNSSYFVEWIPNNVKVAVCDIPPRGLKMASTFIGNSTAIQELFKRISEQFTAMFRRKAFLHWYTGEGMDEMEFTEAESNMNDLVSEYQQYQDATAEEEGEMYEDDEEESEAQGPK
FLAG-tagged TUBB4 C terminus (P04350, residues 317-444): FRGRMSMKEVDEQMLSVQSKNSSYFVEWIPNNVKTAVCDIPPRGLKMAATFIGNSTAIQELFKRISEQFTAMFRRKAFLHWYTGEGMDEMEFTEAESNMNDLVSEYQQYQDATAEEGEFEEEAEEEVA
TUBB4 A364D C terminus, GAL4-AD prey (P04350, form named): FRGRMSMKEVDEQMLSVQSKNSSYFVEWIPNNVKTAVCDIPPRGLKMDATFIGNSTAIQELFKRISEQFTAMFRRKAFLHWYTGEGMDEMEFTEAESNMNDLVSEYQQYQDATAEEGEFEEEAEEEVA
TUBB4 A364E C terminus, GAL4-AD prey (P04350, form named): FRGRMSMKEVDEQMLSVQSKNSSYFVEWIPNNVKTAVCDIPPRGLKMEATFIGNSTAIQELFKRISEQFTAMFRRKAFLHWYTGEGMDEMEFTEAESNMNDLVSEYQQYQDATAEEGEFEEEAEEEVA
TUBB4 A364S C terminus, GAL4-AD prey (P04350, form named): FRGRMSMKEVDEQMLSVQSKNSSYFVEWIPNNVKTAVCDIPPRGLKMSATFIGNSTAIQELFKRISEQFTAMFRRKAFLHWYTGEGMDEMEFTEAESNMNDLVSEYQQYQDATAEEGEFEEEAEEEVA
TUBB6 C terminus (Phe-317 to the stop codon), GAL4-AD prey (Q9BUF5, residues 317-446): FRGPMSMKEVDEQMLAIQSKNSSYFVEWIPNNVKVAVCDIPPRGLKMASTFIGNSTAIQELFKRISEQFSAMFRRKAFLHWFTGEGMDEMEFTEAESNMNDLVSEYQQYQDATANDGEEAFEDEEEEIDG
TUBB6 A364S C terminus, GAL4-AD prey (Q9BUF5, form named): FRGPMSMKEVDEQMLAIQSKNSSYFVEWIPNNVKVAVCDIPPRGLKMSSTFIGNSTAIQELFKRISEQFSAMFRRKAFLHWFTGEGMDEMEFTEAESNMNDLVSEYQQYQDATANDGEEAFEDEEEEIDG
TUBB6 K362S C terminus, GAL4-AD prey (Q9BUF5, form named): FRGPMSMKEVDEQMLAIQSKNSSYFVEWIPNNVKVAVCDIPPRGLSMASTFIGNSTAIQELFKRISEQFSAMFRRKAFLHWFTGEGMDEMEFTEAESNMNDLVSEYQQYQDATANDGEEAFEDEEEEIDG
TUBB6 P320R C terminus, GAL4-AD prey (Q9BUF5, form named): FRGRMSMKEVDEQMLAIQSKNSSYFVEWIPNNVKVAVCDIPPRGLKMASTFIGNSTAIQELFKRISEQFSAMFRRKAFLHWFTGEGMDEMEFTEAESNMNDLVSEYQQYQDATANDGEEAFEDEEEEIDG
TUBB6 P320R/A364S C terminus, GAL4-AD prey (Q9BUF5, form named): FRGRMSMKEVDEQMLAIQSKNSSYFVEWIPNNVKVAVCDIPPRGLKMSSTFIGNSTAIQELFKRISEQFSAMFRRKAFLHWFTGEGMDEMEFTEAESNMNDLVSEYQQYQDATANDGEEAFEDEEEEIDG
TUBB6 P320R/K362S C terminus, GAL4-AD prey (Q9BUF5, form named): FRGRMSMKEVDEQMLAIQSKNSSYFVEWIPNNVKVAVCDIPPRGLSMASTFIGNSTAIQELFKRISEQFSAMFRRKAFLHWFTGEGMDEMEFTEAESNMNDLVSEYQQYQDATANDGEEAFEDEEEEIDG

Target: LRRK2 RocCOR tandem domain (LexA-BD bait, wild type) (human) (UniProt Q5S007)
Assay: two-hybrid; yeast L40, LexA-BD baits and GAL4-AD preys; selection without Leu, Trp, His with 0.5 mM 3-amino-1,2,4-triazole, 30 °C 3-6 days; semiquantitative LacZ freeze-fracture assays

binding | Substance
no binding | TUBA1C (yeast two-hybrid construct) (from UniProt Q9BQE3 1-449)
no binding | TUBA4A (yeast two-hybrid construct) (from UniProt P68366 1-448)
no binding | TUBB1 C terminus (Phe-317 to the stop codon), GAL4-AD prey (from UniProt Q9H4B7 317-451) (domain or fragment)
no binding | TUBB1 N371S C terminus, GAL4-AD prey (from UniProt Q9H4B7 317-451) (domain or fragment)
binds | TUBB1 S362K C terminus, GAL4-AD prey (from UniProt Q9H4B7 317-451) (domain or fragment)
no binding | TUBB2A C terminus (Phe-317 to the stop codon), GAL4-AD prey (from UniProt Q13885 317-445) (domain or fragment)
binds | TUBB2A S364A C terminus, GAL4-AD prey (from UniProt Q13885 317-445) (domain or fragment)
no binding | TUBB2B C terminus (Phe-317 to the stop codon), GAL4-AD prey (from UniProt Q9BVA1 317-445) (domain or fragment)
binds | TUBB2B S364A C terminus, GAL4-AD prey (from UniProt Q9BVA1 317-445) (domain or fragment)
no binding | TUBB2C C terminus (Phe-317 to the stop codon), GAL4-AD prey (from UniProt P68371 317-445) (domain or fragment)
binds | TUBB2C S364A C terminus, GAL4-AD prey (from UniProt P68371 317-445) (domain or fragment)
no binding | TUBB3 C terminus (Phe-317 to the stop codon), GAL4-AD prey (from UniProt Q13509 317-450) (domain or fragment)
binds | TUBB3 S364A C terminus, GAL4-AD prey (from UniProt Q13509 317-450) (domain or fragment)
no binding | TUBB4 A364D C terminus, GAL4-AD prey (from UniProt P04350 317-444) (domain or fragment)
no binding | TUBB4 A364E C terminus, GAL4-AD prey (from UniProt P04350 317-444) (domain or fragment)
no binding | TUBB4 A364S C terminus, GAL4-AD prey (from UniProt P04350 317-444) (domain or fragment)
binds | TUBB4 C terminus (Phe-317 to Ala-444), GAL4-AD prey (from UniProt P04350 317-444) (domain or fragment)
binds | TUBB6 A364S C terminus, GAL4-AD prey (from UniProt Q9BUF5 317-446) (domain or fragment)
binds | TUBB6 C terminus (Phe-317 to the stop codon), GAL4-AD prey (from UniProt Q9BUF5 317-446) (domain or fragment)
binds | TUBB6 K362S C terminus, GAL4-AD prey (from UniProt Q9BUF5 317-446) (domain or fragment)
binds | TUBB6 P320R C terminus, GAL4-AD prey (from UniProt Q9BUF5 317-446) (domain or fragment)
no binding | TUBB6 P320R/A364S C terminus, GAL4-AD prey (from UniProt Q9BUF5 317-446) (domain or fragment)
no binding | TUBB6 P320R/K362S C terminus, GAL4-AD prey (from UniProt Q9BUF5 317-446) (domain or fragment)

Target: LRRK2 RocCOR tandem domain (LexA-BD bait, wild type) (human) (UniProt Q5S007)
Assay: two-hybrid; quantitative YTH (Q-YTH): chlorophenol-red-β-D-galactopyranoside colour change at 540 nm, background (bait + empty pACT2) subtracted, normalised to wild-type RocCOR = 100%

binding | Substance
binds | TUBB4 C terminus (Phe-317 to Ala-444), GAL4-AD prey (from UniProt P04350 317-444) (domain or fragment)

Target: LRRK2 RocCOR tandem domain (LexA-BD bait, wild type) (human) (UniProt Q5S007)
Assay: two-hybrid; screen of a human whole brain cDNA library with a LRRK2 RocCOR domain bait

binding | Substance
binds | TUBB4 C terminus (Phe-317 to Ala-444), GAL4-AD prey (from UniProt P04350 317-444) (domain or fragment)

Target: FLAG-tagged TUBB4 C terminus (human) (UniProt P04350)
Assay: co-IP; HEK293 cells transfected with FLAG-β-tubulin and myc-LRRK2 constructs; lysate on anti-FLAG M2 affinity gel overnight at 4 °C, elution with 3xFLAG peptide, anti-myc blot

binding | Substance
binds | myc-tagged LRRK2 RocCOR domain (from UniProt Q5S007) (domain or fragment)
